Test results from patent publication US20120164140A1.
These are yes or no findings as the source states them, for the method shown. Some results given as binding are weak or reduced against the parent protein; the word gives no strength. Where a sequence is shown, tags or fusion partners need not be part of it. One block for each binder: values may come before it.

Key:
[1] = target: T1, ^125I-labeled BMP-2 (human) (UniProt P12643); assay: summary of solution binding and crosslinking assays
T1 sequence (iodinated with ^125I by the modified chloramine-T method, looked up): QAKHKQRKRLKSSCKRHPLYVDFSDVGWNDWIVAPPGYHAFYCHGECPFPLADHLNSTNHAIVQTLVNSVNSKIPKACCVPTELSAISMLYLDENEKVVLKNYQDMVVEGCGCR

[2] = target: T2, ^125I-labeled BMP-4 (human) (UniProt P12644); assay: as above
T2 sequence (iodinated with ^125I by the modified chloramine-T method, looked up): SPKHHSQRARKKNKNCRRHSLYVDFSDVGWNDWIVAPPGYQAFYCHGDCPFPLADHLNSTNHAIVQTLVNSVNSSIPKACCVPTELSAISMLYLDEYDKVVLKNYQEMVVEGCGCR

[3] = target: T1, ^125I-labeled BMP-2 (human); assay: restatement in Example 8 of the solution binding result
[4] = target: T2, ^125I-labeled BMP-4 (human); assay: as above
[5] = target: T1, ^125I-labeled BMP-2 (human); assay: 60 ng Hjv.Fc with ^125I-ligand overnight, protein A coated plates, gamma counter
[6] = target: T2, ^125I-labeled BMP-4 (human); assay: as above
[7] = target: T1, ^125I-labeled BMP-2 (human); assay: DSS crosslinking, Protein A bead precipitation, nonreducing SDS-PAGE, autoradiography
[8] = target: T1, ^125I-labeled BMP-2 (human); assay: DSS crosslinking in solution, Protein A bead precipitation, nonreducing SDS-PAGE, autoradiography
[9] = target: T1, ^125I-labeled BMP-2 (human); assay: 60 ng Hjv.Fc incubated with ^125I-ligand in solution, capture on protein A coated plates, gamma counting
[10] = target: T2, ^125I-labeled BMP-4 (human); assay: as above
[11] = target: T3, soluble hemojuvelin fusion protein (Hjv.Fc): extracellular domain of mouse Hjv fused to the Fc portion of human immunoglobulin G (mouse; human) (UniProt Q7TQ32); assay: competition: 80 ng cold BMP-4 against ^125I-BMP-2 or ^125I-BMP-4 for Hjv.Fc, protein A plates, gamma counting
T3 sequence (looked up): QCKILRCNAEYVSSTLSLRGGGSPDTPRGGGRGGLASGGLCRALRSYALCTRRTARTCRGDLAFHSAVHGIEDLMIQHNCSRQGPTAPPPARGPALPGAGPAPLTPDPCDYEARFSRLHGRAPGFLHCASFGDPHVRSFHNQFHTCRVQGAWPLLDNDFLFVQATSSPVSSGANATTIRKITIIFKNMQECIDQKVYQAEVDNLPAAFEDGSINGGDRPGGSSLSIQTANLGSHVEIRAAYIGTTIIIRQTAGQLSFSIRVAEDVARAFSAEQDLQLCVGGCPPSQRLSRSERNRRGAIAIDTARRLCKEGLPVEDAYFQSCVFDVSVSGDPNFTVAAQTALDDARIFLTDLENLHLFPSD

[12] = target: T3, soluble hemojuvelin fusion protein (Hjv.Fc): extracellular domain of mouse Hjv fused to the Fc portion of human immunoglobulin G (mouse; human); assay: DSS crosslinking of ^125I-BMP-2 to Hjv.Fc with excess unlabeled BMP-2 as competitor, autoradiography
[13] = target: T3, soluble hemojuvelin fusion protein (Hjv.Fc): extracellular domain of mouse Hjv fused to the Fc portion of human immunoglobulin G (mouse; human); assay: competition: 80 ng cold BMP-2 against ^125I-BMP-2 or ^125I-BMP-4 for Hjv.Fc, protein A plates, gamma counting

- binding [1]: binds
- binding [2]: binds
- binding [3]: binds
- binding [4]: binds
- binding [5]: binds
- binding [6]: binds
- binding [7]: binds
- binding [8]: binds
- binding [9]: binds
- binding [10]: binds
B1: soluble hemojuvelin fusion protein (Hjv.Fc): extracellular domain of mouse Hjv fused to the Fc portion of human immunoglobulin G (Fc fusion, UniProt Q7TQ32 33-393, looked up, not shown: a dimerising Fc or GST)
chain: QCKILRCNAEYVSSTLSLRGGGSPDTPRGGGRGGLASGGLCRALRSYALCTRRTARTCRGDLAFHSAVHGIEDLMIQHNCSRQGPTAPPPARGPALPGAGPAPLTPDPCDYEARFSRLHGRAPGFLHCASFGDPHVRSFHNQFHTCRVQGAWPLLDNDFLFVQATSSPVSSGANATTIRKITIIFKNMQECIDQKVYQAEVDNLPAAFEDGSINGGDRPGGSSLSIQTANLGSHVEIRAAYIGTTIIIRQTAGQLSFSIRVAEDVARAFSAEQDLQLCVGGCPPSQRLSRSERNRRGAIAIDTARRLCKEGLPVEDAYFQSCVFDVSVSGDPNFTVAAQTALDDARIFLTDLENLHLFPSD

- binding [11]: binds
B2: BMP-4 (unlabeled) (ligand, UniProt P12644 293-408, looked up)
chain: SPKHHSQRARKKNKNCRRHSLYVDFSDVGWNDWIVAPPGYQAFYCHGDCPFPLADHLNSTNHAIVQTLVNSVNSSIPKACCVPTELSAISMLYLDEYDKVVLKNYQEMVVEGCGCR

- binding [12]: binds
- binding [13]: binds
B3: BMP-2 (unlabeled) (ligand, UniProt P12643 283-396, looked up)
chain: QAKHKQRKRLKSSCKRHPLYVDFSDVGWNDWIVAPPGYHAFYCHGECPFPLADHLNSTNHAIVQTLVNSVNSKIPKACCVPTELSAISMLYLDENEKVVLKNYQDMVVEGCGCR
